Results taken from patent US11944689B2 (priority 2016, dated 2024).

Experiment: general procedure: solution-phase peptide synthesis; HATU/DIPEA
Details: conjugation step

## Ph-nBu-mAze-Val-Cit-PABC-MMA
  conjugation yield: 17%
